These results are taken from publication PMC5897396.

By UniProt entry, the sequences of proteins in these tests, tags left out. Residues count along the entry.
UniProt Q62656, residues 25-2316: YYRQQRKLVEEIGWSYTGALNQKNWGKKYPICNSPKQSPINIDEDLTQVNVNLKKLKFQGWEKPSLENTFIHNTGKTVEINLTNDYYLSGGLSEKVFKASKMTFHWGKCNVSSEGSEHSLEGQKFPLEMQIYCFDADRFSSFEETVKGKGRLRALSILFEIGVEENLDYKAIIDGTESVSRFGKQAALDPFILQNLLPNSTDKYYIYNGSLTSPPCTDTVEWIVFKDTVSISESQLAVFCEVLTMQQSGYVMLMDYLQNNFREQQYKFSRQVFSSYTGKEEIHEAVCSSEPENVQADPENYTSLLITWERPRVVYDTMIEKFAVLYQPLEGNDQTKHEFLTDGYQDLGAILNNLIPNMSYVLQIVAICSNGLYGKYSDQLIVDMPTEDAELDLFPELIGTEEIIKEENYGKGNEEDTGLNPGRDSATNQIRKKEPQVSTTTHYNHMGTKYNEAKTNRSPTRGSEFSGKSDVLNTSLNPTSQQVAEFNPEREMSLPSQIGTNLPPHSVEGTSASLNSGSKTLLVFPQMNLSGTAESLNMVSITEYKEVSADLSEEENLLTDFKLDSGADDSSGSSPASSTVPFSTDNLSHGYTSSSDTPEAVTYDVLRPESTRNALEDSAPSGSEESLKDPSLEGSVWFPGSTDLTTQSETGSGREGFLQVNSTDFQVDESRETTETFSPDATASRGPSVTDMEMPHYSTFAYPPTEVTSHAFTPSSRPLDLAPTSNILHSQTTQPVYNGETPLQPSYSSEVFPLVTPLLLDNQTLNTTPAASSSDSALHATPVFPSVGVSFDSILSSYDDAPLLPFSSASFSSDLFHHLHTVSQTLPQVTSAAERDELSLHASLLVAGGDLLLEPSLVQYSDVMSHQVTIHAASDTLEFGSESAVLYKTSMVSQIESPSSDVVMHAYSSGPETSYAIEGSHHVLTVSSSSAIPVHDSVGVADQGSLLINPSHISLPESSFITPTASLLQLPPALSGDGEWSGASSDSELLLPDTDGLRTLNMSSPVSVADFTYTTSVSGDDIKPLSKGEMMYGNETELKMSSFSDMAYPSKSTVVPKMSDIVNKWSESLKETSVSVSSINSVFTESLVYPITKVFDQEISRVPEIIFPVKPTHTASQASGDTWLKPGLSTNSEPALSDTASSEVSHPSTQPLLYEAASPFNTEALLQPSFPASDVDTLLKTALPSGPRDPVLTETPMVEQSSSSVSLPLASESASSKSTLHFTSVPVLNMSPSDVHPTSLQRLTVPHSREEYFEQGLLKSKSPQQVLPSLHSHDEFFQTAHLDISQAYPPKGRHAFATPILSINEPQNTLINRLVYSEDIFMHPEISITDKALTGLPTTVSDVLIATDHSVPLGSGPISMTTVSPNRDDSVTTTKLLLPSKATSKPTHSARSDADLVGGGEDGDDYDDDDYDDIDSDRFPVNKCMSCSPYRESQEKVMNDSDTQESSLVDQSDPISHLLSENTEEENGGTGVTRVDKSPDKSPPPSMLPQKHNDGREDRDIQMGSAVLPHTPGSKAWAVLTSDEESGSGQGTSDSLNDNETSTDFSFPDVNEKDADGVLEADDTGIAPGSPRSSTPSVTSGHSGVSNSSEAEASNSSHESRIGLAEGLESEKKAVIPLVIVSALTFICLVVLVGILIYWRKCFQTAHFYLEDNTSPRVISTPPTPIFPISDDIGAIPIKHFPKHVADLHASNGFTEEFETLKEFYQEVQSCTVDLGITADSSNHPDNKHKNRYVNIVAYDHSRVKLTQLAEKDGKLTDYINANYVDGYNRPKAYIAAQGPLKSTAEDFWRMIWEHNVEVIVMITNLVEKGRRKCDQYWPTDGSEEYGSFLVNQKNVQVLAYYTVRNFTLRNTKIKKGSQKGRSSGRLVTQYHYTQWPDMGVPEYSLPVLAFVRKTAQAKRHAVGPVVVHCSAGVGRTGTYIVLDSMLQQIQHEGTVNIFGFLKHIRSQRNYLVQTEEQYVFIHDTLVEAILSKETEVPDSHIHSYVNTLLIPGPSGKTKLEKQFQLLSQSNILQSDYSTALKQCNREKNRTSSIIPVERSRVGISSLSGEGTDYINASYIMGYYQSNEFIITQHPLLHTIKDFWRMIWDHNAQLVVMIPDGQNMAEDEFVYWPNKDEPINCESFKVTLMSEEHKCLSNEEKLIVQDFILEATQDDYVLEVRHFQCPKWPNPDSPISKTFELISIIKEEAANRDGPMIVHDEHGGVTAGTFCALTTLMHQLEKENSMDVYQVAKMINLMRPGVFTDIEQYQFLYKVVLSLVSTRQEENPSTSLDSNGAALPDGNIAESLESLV
UniProt P23471, residues 25-2315: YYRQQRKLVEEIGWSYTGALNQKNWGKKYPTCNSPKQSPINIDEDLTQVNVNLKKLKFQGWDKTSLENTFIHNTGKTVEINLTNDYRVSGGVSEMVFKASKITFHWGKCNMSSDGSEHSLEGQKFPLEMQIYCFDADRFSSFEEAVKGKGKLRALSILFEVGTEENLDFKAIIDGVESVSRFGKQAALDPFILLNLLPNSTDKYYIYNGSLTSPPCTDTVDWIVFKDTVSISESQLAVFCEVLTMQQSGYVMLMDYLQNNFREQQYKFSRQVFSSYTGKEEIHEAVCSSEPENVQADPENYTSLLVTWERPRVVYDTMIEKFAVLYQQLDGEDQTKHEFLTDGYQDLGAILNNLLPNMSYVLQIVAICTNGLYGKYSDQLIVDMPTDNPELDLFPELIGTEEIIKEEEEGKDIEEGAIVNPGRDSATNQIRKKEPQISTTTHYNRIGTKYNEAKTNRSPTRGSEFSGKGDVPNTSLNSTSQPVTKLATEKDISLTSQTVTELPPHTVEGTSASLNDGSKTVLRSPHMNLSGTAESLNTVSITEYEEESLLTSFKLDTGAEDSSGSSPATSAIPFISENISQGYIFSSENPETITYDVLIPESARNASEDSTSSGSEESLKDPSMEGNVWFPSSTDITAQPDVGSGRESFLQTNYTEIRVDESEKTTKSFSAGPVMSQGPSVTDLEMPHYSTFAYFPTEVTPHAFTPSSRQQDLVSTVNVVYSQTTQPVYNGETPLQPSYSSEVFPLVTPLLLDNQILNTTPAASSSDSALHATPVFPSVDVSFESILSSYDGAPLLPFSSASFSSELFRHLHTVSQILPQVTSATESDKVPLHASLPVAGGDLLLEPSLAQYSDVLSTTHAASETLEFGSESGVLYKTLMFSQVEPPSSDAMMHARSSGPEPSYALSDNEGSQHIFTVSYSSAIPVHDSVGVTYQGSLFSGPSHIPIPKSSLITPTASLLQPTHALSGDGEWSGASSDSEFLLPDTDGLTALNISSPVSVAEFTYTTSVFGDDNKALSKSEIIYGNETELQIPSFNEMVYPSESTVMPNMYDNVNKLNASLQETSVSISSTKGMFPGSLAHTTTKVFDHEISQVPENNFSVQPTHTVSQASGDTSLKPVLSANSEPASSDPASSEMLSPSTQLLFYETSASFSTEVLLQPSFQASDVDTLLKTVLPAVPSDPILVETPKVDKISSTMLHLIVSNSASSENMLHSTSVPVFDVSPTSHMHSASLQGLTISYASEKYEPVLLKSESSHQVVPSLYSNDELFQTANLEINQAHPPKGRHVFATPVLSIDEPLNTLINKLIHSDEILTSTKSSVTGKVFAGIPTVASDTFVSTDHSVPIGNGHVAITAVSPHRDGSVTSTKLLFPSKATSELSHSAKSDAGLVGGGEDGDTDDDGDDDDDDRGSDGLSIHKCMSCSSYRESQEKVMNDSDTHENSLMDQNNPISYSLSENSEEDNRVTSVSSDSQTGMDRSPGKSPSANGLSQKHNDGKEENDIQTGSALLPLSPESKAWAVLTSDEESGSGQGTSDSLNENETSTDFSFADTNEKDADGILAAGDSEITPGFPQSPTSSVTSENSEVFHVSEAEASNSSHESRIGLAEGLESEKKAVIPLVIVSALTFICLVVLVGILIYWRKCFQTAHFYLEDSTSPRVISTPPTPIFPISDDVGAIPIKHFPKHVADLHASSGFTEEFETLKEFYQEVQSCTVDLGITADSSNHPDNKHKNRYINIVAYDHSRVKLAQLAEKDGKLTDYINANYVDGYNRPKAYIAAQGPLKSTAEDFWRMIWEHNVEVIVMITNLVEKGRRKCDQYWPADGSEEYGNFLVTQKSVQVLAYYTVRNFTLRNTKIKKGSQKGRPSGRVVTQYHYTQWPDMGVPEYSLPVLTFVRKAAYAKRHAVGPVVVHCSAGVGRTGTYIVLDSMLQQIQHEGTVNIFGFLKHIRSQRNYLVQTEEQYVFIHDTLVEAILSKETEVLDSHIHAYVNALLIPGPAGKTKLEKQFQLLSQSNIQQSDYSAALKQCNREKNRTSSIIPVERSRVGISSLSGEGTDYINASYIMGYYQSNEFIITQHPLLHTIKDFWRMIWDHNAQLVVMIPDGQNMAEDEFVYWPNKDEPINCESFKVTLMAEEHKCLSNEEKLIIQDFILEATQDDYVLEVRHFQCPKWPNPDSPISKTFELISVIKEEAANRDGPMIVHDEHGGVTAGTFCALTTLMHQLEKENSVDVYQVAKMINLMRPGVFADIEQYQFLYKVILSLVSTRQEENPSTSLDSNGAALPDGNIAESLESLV
UniProt Q15078: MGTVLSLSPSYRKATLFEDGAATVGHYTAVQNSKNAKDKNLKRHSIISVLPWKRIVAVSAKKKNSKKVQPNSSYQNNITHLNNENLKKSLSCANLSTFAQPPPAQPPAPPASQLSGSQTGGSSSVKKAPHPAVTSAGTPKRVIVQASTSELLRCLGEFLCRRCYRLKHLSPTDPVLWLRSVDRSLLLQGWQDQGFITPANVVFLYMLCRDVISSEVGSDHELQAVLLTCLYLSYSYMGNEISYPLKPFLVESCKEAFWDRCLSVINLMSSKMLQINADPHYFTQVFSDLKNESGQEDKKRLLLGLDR
UniProt P61810: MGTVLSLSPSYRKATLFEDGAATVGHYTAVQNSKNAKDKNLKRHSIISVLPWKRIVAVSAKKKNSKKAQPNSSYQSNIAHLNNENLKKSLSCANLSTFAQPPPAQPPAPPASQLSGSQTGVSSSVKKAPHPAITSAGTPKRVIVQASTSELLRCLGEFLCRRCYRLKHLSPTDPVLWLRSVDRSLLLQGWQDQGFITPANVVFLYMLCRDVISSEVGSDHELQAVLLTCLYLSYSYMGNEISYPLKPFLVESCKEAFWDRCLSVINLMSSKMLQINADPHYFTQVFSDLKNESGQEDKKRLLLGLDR

No constants are given. Whether binding was seen depends on the method and setting. Binding seen in cells or lysates may run through a third protein. Some entries that bind do so weakly or less than the wild type.

For experiment [1], the target named is receptor protein tyrosine phosphatase beta/zeta (rat glioma C6 cells) (rat (endogenous in C6)) (UniProt Q62656). Briefly: co-IP; rat glioma C6 cells; p35 and CDK5 co-immunoprecipitated with RPTPβ/ζ (Supplementary Fig. S2).
Experiment [2] addresses receptor protein tyrosine phosphatase beta/zeta (human (endogenous in HUVEC)) (UniProt P23471). Description: proximity ligation; in situ PLA (Duolink) in fixed HUVEC, in the absence or presence of exogenous PTN (100 ng/ml) for 10 min.
Experiment [3] has the same target. Description: co-IP; HUVEC lysates (PBS, 1% Triton X-100, 0.1% SDS, 5 mM EDTA) immunoprecipitated with antibodies for RPTPβ/ζ, p35 or CDK5, 16 h at 4 °C, protein A/G agarose, Western blot; IgG as negative control; cells with or without PTN (100 ng/ml, 10 min), RPTPβ/ζ siRNA or peptide B3.

With “CDK5 (rat glioma C6 cells) (from UniProt Q03114 1-292) (enzyme)”, in experiment [1], the binding entry is given as “binds”.

As to “cyclin-dependent kinase 5 (from UniProt Q00535 1-292) (enzyme)”, the binding result in experiment [2] and in experiment [3] was “binds” each time. For the substance “cyclin-dependent kinase 5 activator 1, p35 (from UniProt Q15078 1-307)”, the binding result in experiment [2] and in experiment [3] was “binds” throughout. Turning to “p35 (rat glioma C6 cells) (from UniProt P61810 1-307)”, the binding result in experiment [1] was “binds”.
